# According to PubChem BioAssay AID2685 (National Center for Advancing Translational Sciences (NCATS), 2010):
# Some of the results follow. These are further read-outs of the screen, such as a control signal, another cell line or another target. No call is given for them. The list favours compounds with an active or inconclusive main result. Words in brackets tell the shape of the fitted curve; partial curves, single points and poor fits give uncertain potencies.
# Test: qHTS Assay for Lipid Storage Modulators in Drosophila S3 Cells;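 as to cell number change: cells counted by Cell Tracker Red CMTPX staining in the red channel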
# Settings: BODIPY lipid droplet fluorescence, 18-24 h; for cell number change: measured here: cell count max response, cells fed with added oleic acid
# In short: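 Laser-scanning cytometry quantifies lipid droplet accumulation (500–530 nm total intensity; droplet/cell object ratio) in oleic acid-fed (400 uM added) Drosophila S3 cells treated with a concentration series. 20 uM Triacsin C defined 100% inhibition.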
# [1] = measured here: lipid fluorescence (Fed channel) AC50, cells fed with added oleic acid
# [2] = measured here: cell number channel AC50, cells fed with added oleic acid
Compound,cell number change [%],AC50 [1],AC50 [2]
Cc1ccc(-c2cc(-c3ccccc3)cc(-c3ccccc3)[n+]2-c2ccc(C(=O)O)cc2)cc1,-16.4,"5.17 µM [rising, partial curve]",
CSCCC(N=Cc1c(O)n(-c2ccc(F)cc2)c(=O)[nH]c1=O)C(=O)OC(C)(C)C (configuration not stated),-55.1,,"29.1 µM [falling, single point]"
COc1cc(OC)c(OC)cc1CN1CCN(C(=O)COc2ccc3ccccc3c2)CC1,-1.59,"29.1 µM [rising, single point]",
O=[N+]([O-])c1cc(S(=O)(=O)c2ccc(O)c([N+](=O)[O-])c2)ccc1O,-0.784,"1.64 µM [falling, partial curve]",
N/C(=N/[N+](=O)[O-])N1CCN(C(=O)c2ccc(Cl)cc2)CC1,-7.06,"0.651 µM [rising, partial curve, poor fit]","0.731 µM [rising, partial curve, poor fit]"
O=C(O)CC1OCC=C2CN3CCC45c6ccccc6NC4C1C2CC35 (configuration not stated),19.9,"2.31 µM [rising, full curve]",
CC#CP(=O)(OC)C(O)(CF)c1ccccc1 (configuration not stated),-7,"0.0058 µM [falling, full curve, poor fit]",
CCCCCCNc1nc(OC)nc(N2CC3CC(C2)c2cccc(=O)n2C3)n1 (configuration not stated),-9.23,"18.4 µM [rising, single point]",
COC(=O)Cn1cc(C=C2C(=O)N(C)C(=O)N(C)C2=O)c2ccccc21,19.2,"1.03 µM [rising, full curve, poor fit]",
COc1cccc(NC(=O)[C@@H](NC(=O)N2C[C@H]3C[C@@H](C2)c2cccc(=O)n2C3)C(C)C)c1,-15.6,"2.59 µM [falling, full curve, poor fit]",
CC/C=C/CC(=O)N[C@@H](c1ccccc1)[C@@H](O)C(=O)O[C@H]1C[C@@]2(O)[C@@H](OC(=O)c3ccccc3)C3[C@](C)(C(=O)[C@H](OC(C)=O)C(=C1C)C2(C)C)[C@@H](O)C[C@H]1OC[C@@]31OC(C)=O (some centres not stated),-0.0872,"3.26 µM [falling, single point]",
O=C1NC(=O)N(Cc2ccco2)C(=O)/C1=C/C=C/c1ccco1,-36,,"20.6 µM [falling, single point]"
CCC(=NCCCN(CC)CC)c1c(O)n(C2CCCCC2)c(=O)[nH]c1=O,-0.0458,"29.1 µM [falling, single point]",
Nc1ccccc1C(=O)OCCOc1ccccc1,-18.7,"29.1 µM [rising, single point]",
COC(=O)C1=C(c2ccc(Cl)c(C(F)(F)F)c2)C[C@@H]2CC[C@H]1N2C(=O)N1CCCC1,-18.2,"25.9 µM [falling, single point]",
CC(NCC#Cc1ccccc1)C(O)c1ccccc1 (configuration not stated),-6.89,,"0.461 µM [falling, full curve, poor fit]"
Clc1ccc(C(Cn2ccnc2)OCc2csc3c(Cl)cccc23)c(Cl)c1 (configuration not stated),-76.9,,

# Part of the list above, bar-delimited:
Compound | cell number change [%] | AC50 [1] | AC50 [2]
CSCCC(N=Cc1c(O)n(-c2ccc(F)cc2)c(=O)[nH]c1=O)C(=O)OC(C)(C)C (configuration not stated) | -55.1 |  | 29.1 µM [falling, single point]
COc1cc(OC)c(OC)cc1CN1CCN(C(=O)COc2ccc3ccccc3c2)CC1 | -1.59 | 29.1 µM [rising, single point] | 
O=[N+]([O-])c1cc(S(=O)(=O)c2ccc(O)c([N+](=O)[O-])c2)ccc1O | -0.784 | 1.64 µM [falling, partial curve] | 

# Following part

Compound,cell number change [%],AC50 [1],AC50 [2]
Cc1ccc(/C=C2/Sc3ccc(C(=O)N4CCC5(CC4)OCCO5)cc3NC2=O)cc1,-49.1,,"13 µM [falling, partial curve]"
Fc1ccc(CNCCc2ccc3c(c2)OCO3)cc1,12.7,"18.4 µM [rising, single point]",
CCP(=S)(CC)c1ccc(N(C)C)cc1,19.8,"6.51 µM [rising, partial curve, poor fit]",
Cc1cccc(C#N)c1,5.65,"0.0231 µM [rising, full curve, poor fit]",
O=C1NC(=O)N(CCc2ccc(F)cc2)C(=O)/C1=C/C=C/c1ccccc1,-4.48,"6.51 µM [falling, single point]","3.26 µM [falling, single point]"
CCOc1ccc(-c2c(C)n(-c3ccc(OCC)cc3)c3[n+]2CCCCC3)cc1,-69.5,,"5.17 µM [falling, partial curve]"
CC1CCCCN1C(=O)Cn1cc(C=C2C(=O)N(C)C(=O)N(C)C2=O)c2ccccc21 (configuration not stated),3.41,"29.1 µM [falling, single point]",
CCC(=NCCC(c1ccccc1)c1ccccc1)c1c(O)[nH]c(=O)[nH]c1=O,-50,"20.6 µM [rising, partial curve]","29.1 µM [falling, single point]"
O=C1NC(=O)N(c2cccc(Br)c2)C(=O)/C1=C/c1ccsc1,3.68,"4.61 µM [falling, single point]","6.51 µM [falling, single point]"
O=C(C(=O)N1CCC2(CC1)OCCO2)c1c[nH]c2ccccc12,-31.8,,"18.4 µM [falling, single point]"
O=[N+]([O-])c1ccc(NCc2ccc(Cl)cc2)c2ccncc12,-0.704,,
COc1ccc(-n2cnc3cc(C(=O)N4CCC5(CC4)OCCO5)ccc32)cc1,-0.121,"7.31 µM [falling, partial curve, poor fit]","6.51 µM [falling, single point]"
O=C1NC(=O)N(Cc2ccc(F)cc2)C(=O)/C1=C\C=C\c1ccco1,-51.4,"1.46 µM [falling, full curve]","1.64 µM [falling, partial curve, poor fit]"
CCSc1cc(C2C(C#N)=C(N)Oc3n[nH]c(C)c32)c(C)o1 (configuration not stated),,"5.8 µM [rising, single point]","6.51 µM [rising, single point]"
COP(=O)(OC)C(NC(=O)C(C)(C)C)=C(Cl)Cl,-19.1,"0.0291 µM [falling, full curve, poor fit]",
O=C(C1CCC(=O)N1Cc1ccccc1Cl)N1CCC2(CC1)OCCO2 (configuration not stated),-28.8,"29.1 µM [falling, single point]",
O=C(N/N=C/c1c(O)n(-c2cccc3ccccc23)c(=O)[nH]c1=O)c1ccncc1,15.4,,"1.84 µM [rising, single point]"
